Test results published in publication PMC10640548.
No constants are given. Whether binding was seen depends on the method and setting. In cells and extracts the contact can be indirect. Some binding calls cover weakened binding; strength is not graded here. One block for each molecule: values may come before it.

By UniProt entry, the sequences of proteins in these tests, tags left out.
UniProt Q00987: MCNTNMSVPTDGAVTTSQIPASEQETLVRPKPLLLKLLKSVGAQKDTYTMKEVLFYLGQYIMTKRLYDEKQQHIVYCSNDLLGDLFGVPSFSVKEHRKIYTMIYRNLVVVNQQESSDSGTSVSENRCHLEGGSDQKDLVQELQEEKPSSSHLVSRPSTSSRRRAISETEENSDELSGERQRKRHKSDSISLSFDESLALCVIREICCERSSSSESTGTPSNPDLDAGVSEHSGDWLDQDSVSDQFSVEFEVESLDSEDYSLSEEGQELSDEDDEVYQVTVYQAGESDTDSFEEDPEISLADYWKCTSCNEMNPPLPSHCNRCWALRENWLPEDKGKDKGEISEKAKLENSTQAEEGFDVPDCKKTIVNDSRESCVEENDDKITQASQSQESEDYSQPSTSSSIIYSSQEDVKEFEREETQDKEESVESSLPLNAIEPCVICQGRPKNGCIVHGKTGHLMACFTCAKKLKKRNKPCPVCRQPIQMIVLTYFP

What was measured:
PPARγ protein = PPARγ protein (UniProt P37231); assay: co-IP; HEK293T cells; TNE buffer; FLAG-tagged protein precipitated on anti-FLAG M2 Affinity Gel and eluted with 200 μg/mL FLAG peptide; Western blot
PPARγ protein, P37231 = target: T1, PPARγ protein, P37231; assay: as above; details: remark: other sources report otherwise
T1 chain: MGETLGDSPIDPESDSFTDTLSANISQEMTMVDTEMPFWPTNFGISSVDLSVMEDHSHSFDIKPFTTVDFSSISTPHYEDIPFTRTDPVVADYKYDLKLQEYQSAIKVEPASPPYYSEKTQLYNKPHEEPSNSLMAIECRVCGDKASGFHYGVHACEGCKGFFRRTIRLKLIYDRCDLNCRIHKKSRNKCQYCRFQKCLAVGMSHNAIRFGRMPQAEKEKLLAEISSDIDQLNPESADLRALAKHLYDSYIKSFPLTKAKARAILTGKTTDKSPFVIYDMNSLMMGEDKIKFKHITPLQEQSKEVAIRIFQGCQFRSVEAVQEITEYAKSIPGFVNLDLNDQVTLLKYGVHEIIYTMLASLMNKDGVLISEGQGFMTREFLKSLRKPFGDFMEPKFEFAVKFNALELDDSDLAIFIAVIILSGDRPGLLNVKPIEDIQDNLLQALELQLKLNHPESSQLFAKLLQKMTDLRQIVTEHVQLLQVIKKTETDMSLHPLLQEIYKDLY

binding (PPARγ protein): binds
Molecule: MDM2 (from UniProt Q00987 1-491) (enzyme)

binding (PPARγ protein, P37231): no binding
B1: STUB1, Q9UNE7 1-303 (enzyme)
chain: MKGKEEKEGGARLGAGGGSPEKSPSAQELKEQGNRLFVGRKYPEAAACYGRAITRNPLVAVYYTNRALCYLKMQQHEQALADCRRALELDGQSVKAHFFLGQCQLEMESYDEAIANLQRAYSLAKEQRLNFGDDIPSALRIAKKKRWNSIEERRIHQESELHSYLSRLIAAERERELEECQRNHEGDEDDSHVRAQQACIEAKHDKYMADMDELFSQVDEKRKKRDIPDYLCGKISFELMREPCITPSGITYDRKDIEEHLQRVGHFDPVTRSPLTQEQLIPNLAMKEVIDAFISENGWVEDY
